The values below come from patent US10669268B2, “Bicyclic derivatives” (Hoffmann-La Roche Inc., priority 2012, dated 2020).

Each structure is given as a SMILES string. The structures given here were assigned with low confidence; some may be wrong.

This experiment concerns the target ATX (human His-tagged) (Homo sapiens (Human), UniProt Q13822). The experiment is described as follows: Human ATX enzyme inhibition assay (fluorescence quenching, MR121 substrate). The format is biochemical. To be noted: 30 nM ATX, 1 μM MR121 substrate, 30° C., pH 8.0.

Turning to `O=C(/C=C/c1ccc(S(=O)(=O)C(F)(F)F)cc1)N1CC[C@@H]2CN(C(=O)c3ccc4[nH]nnc4c3)C[C@@H]2CC1`, the IC50 (usually the midpoint of a concentration-inhibition curve) was determined as 15 nM.
